Experimental data from paper PMC7515705.
Results are given in words; binding and its absence hold for the method and conditions named. Binding seen in cells or lysates may run through a third protein. Binding calls can cover weak binding; strength is not graded here. Sequences can lack the tags named with a protein.

Experiments:
YBEY-3 × FLAG (human) = target: T1, YBEY-3 × FLAG (human) (UniProt P58557); experiment: co-IP; α-FLAG antibody and protein A-sepharose on mitochondrial lysates of SAL001 cells expressing YBEY-3 × FLAG; parental cells as control; western blotting of lysate, flow-through, wash and IP fractions
T1 sequence: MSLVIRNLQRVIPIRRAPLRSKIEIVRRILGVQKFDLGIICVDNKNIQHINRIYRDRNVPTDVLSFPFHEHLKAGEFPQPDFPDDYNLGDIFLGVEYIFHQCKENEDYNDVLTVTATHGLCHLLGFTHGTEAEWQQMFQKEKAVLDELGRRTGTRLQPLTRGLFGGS

YBEY-His6 (human) = target: T2, YBEY-His6 (human) (UniProt P58557); experiment: pull-down; cleared lysates of E. coli co-expressing YBEY-His6 and p32 and of E. coli expressing uS11m mixed 1:1, 30 min at 4°C, then Ni-NTA agarose, native conditions, step elution with imidazole
T2 sequence: T1 sequence

binding (YBEY-3 × FLAG (human))	binding (YBEY-His6 (human))	Substance
no binding		mS35
	binds	uS11m (mature form, tagless) (human)
binds		uS11m, endogenous
